We go through 1 molecule from US20180371107A1 (published 2018).

No constants are given. Whether binding was seen depends on the method and setting. Some binding calls cover weakened binding; strength is not graded here.

The assay concerns the target T1, mouse NSP4 (mNSP4), form not stated in Example 6 (mouse) (UniProt Q14B24).
T1 sequence (looked up): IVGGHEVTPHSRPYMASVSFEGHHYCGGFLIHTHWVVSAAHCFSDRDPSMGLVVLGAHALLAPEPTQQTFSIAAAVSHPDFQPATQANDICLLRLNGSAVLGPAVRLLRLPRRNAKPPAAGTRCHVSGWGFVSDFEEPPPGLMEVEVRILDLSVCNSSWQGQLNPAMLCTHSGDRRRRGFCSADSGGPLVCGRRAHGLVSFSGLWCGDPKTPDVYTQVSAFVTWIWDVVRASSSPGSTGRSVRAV
The experiment in a line: BLI: mouse NSP4 preincubated with Fab 5-1 as competitor. Background: BLI is a label-free optical method that tracks binding on a fibre tip over time.

B1: Fab 5-1 (NSP4 antibody 5-1, Fab format) (Fab, V domains shown)
VH: EVQLVESGGGLVQPGGSLRLSCAASGFTFSGSGIHWVRQAPGKGLEWVAWISPTGGNTYYADSVKGRFTISADTSKNTAYLQMNSLRAEDTAVYYCAKSLFHNVAFDYWGQGTLVTVSS
VL: DIQMTQSPSSLSASVGDRVTITCRASQDVSTAVAWYQQKPGKAPKLLIYSASFLYSGVPSRFSGSGSGTDFTLTISSLQPEDFATYYCQQSYTTPPTFGQGTKVEIKR
As for B1, the binding result is reported as “binds”.
